Experimental data: PubChem BioAssay AID463205 (Broad Institute, 2010)
Screen size: about 2,400 compounds; about 20 (0.8%) were called active.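 The calls were made as follows: active = AC50 no more than ten times the highest tested concentration, or full inhibition at every dose giving a flat fit (cut at about 30 µM in these data); inconclusive = flat fit with activity between 30% and 70%, or poor-quality invalid fit; inactive = AC50 more than ten times the top tested dose.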 The list shows a part of the results.

Assay: inhibitors of ADP-Glo detection reagents, dose response, artefact control for GSK-3a inhibitor project, biochemical, luminescence, cell-free, homogeneous (AID 463205);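 also: kinase-free counter-screen against the ADP-Glo detection reagents only; potency is for inhibitors that reduce the luminescence signal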
Details: 5 uM ADP

Q: With `COc1cc2c3c(c1OC)-c1cc(O)ccc1CC3NCC2` (stereo not given) as the compound, how does the AC50 read?
A: inactive: > 30 µM

Q: Which AC50 does the source give for `CCC(=NCCCO)c1c(O)n(-c2ccc(OC)cc2)c(=O)[nH]c1=O` here?
A: inactive: > 30 µM

Q: Which AC50 does the source give for `COc1ccc2nc(NC(=O)CCc3nc(C4=CCN(C)CC4)no3)sc2c1` here?
A: inactive: > 30 µM

Q: Which AC50 does the source give for `C=CCn1c(O)c(C=NCCCn2ccnc2)c(=O)[nH]c1=O` here?
A: inactive: > 30 µM

Q: For `O=C(NCc1ccc(C(=O)N2CCC3(CC2)OCCO3)cc1)c1ccc2c(c1)OCO2`, which AC50 is on record?
A: inactive: > 30 µM

Q: With `O=C1Nc2ccccc2Sc2ccccc21` as the compound, how does the AC50 read?
A: inactive: > 30 µM

Q: Which AC50 does the source give for `O=c1[nH]c(=S)n(C2CC2)c(O)c1C=NCc1cccnc1` here?
A: inactive: > 30 µM

Q: Which AC50 does the source give for `CC(C)N1C(=O)/C(=C/C=C/c2ccco2)C(=O)N(Cc2ccco2)C1=O` here?
A: inactive: > 30 µM

Q: For `CCCCn1c(O)c(C(CC)=NCCCn2ccnc2)c(=O)[nH]c1=O`, which AC50 is on record?
A: inactive: > 30 µM

Q: With `C[C@H]1CCC[C@H](O)CCCCCc2cc(O)cc(O)c2C(=O)O1` as the compound, how does the AC50 read?
A: inactive: > 30 µM

Q: Which AC50 does the source give for `O=c1[nH]c(=S)n(CCC2=CCCCC2)c(O)c1C=NCCCn1ccnc1` here?
A: inactive: > 30 µM

Q: With `CC(Cc1ccsc1)NCc1cn[nH]c1-c1ccc(F)cc1F` (stereo not given) as the compound, how does the AC50 read?
A: inactive: > 30 µM

Q: Which AC50 does the source give for `COc1ccccc1-n1c(O)c(C=NCc2ccc3c(c2)OCO3)c(=O)[nH]c1=O` here?
A: inactive: > 30 µM

Q: For `CCC(=NCCO)c1c(O)n(C2CCCCC2)c(=O)[nH]c1=O`, which AC50 is on record?
A: inactive: > 30 µM

Q: Which AC50 does the source give for `CC1CCC[C@H](O)CCCCCc2cc(O)cc(O)c2C(=O)O1` (stereo not given in full) here?
A: inactive: > 30 µM

Q: For `Oc1ccc(/C=N/NP(=S)(c2ccccc2)c2ccccc2)cc1O`, which AC50 is on record?
A: inactive: > 30 µM

Q: With `NC(=O)c1cn(C2OC(CO)C(O)C2O)c2ncnc(N)c12` (stereo not given) as the compound, how does the AC50 read?
A: inactive: > 30 µM

Q: With `CCC(=NCCCn1ccnc1)c1c(O)n(-c2ccc(OC)cc2)c(=O)[nH]c1=O` as the compound, how does the AC50 read?
A: inactive: > 30 µM

Q: With `O=[N+]([O-])c1cccnc1N1CCCNCC1` as the compound, how does the AC50 read?
A: inactive: > 30 µM

Q: For `O=C(c1ccc2c(c1)OCO2)N1CCC2(CC1)OCCO2`, which AC50 is on record?
A: inactive: > 30 µM

Q: With `COc1ccccc1-n1c(O)c(C=NCCCn2ccnc2)c(=O)[nH]c1=O` as the compound, how does the AC50 read?
A: inactive: > 30 µM

Q: Which AC50 does the source give for `COc1ccc(-n2c(O)c(C(C)=NCCCn3ccnc3)c(=O)[nH]c2=O)cc1` here?
A: inactive: > 30 µM

Q: For `O=C(NCc1ccc(C(=O)N2CCC3(CC2)OCCO3)cc1)c1cccc(Br)c1`, which AC50 is on record?
A: inactive: > 30 µM

Q: Which AC50 does the source give for `CCCCn1c(O)c(C=NCCCn2ccnc2)c(=O)[nH]c1=O` here?
A: inactive: > 30 µM

Q: Which AC50 does the source give for `CCOc1ccccc1-n1c(O)c(C=NCc2ccc3c(c2)OCO3)c(=O)[nH]c1=O` here?
A: inactive: > 30 µM

Q: For `O=c1[nH]c(=O)n(Cc2ccco2)c(O)c1C=NCCCn1ccnc1`, which AC50 is on record?
A: inactive: > 30 µM

Q: With `CCOc1ccc(-n2c(O)c(C=NCCCn3ccnc3)c(=O)[nH]c2=O)cc1` as the compound, how does the AC50 read?
A: inactive: > 30 µM

Q: With `COc1ccc(-n2c(O)c(C=NCCN3CCN(C(C)=O)CC3)c(=O)[nH]c2=S)cc1` as the compound, how does the AC50 read?
A: inactive: > 30 µM

Q: With `O=C1CN=C(c2cccc(Br)c2)c2cc(Br)ccc2N1` as the compound, how does the AC50 read?
A: inactive: > 30 µM

Q: For `CN(C)C(=O)Oc1ccc(OC(=O)N(C)C)cc1`, which AC50 is on record?
A: inactive: > 30 µM

Q: For `O=c1[nH]c(=O)n(C2CCCCCC2)c(O)c1C=NCCCN1CCOCC1`, which AC50 is on record?
A: inactive: > 30 µM

Q: With `CCN1C(=O)C(=C2C=C(C)N(Cc3ccco3)C(C)=C2)C(=O)N(CC)C1=S` as the compound, how does the AC50 read?
A: inactive: > 30 µM

Q: For `Nc1ncc([N+](=O)[O-])s1`, which AC50 is on record?
A: inactive: > 30 µM

Q: With `CCC(=NCc1ccco1)c1c(O)[nH]c(=O)[nH]c1=O` as the compound, how does the AC50 read?
A: inactive: > 30 µM

Q: For `Cc1ccccc1NC1=NCCCS1`, which AC50 is on record?
A: inactive: > 30 µM

Q: For `C=CCn1c(O)c(C(C)=NCCCn2ccnc2)c(=O)[nH]c1=O`, which AC50 is on record?
A: inactive: > 30 µM

Q: For `Cn1c(O)c(C=NC2CCN(Cc3ccccc3)CC2)c(=O)[nH]c1=O`, which AC50 is on record?
A: inactive: > 30 µM

Q: Which AC50 does the source give for `CN(C)C(=O)Oc1ccc2c(c1)O/C(=C\c1cccc([N+](=O)[O-])c1)C2=O` here?
A: inactive: > 30 µM

Q: For `COc1ccc(-n2c(O)c(C=NCc3ccc4c(c3)OCO4)c(=O)[nH]c2=O)cc1`, which AC50 is on record?
A: inactive: > 30 µM

Q: Which AC50 does the source give for `CCCCn1c(O)c(C=NCCCN(CC)CC)c(=O)[nH]c1=O` here?
A: inactive: > 30 µM

Q: With `CCCCCCN=C(CC)c1c(O)n(CCCC)c(=O)[nH]c1=O` as the compound, how does the AC50 read?
A: inactive: > 30 µM

Q: With `O=c1[nH]c(=O)n(C2CCCCC2)c(O)c1C=NCCCn1ccnc1` as the compound, how does the AC50 read?
A: inactive: > 30 µM

Q: Which AC50 does the source give for `CN1CCc2nc3sc(C(=O)NC4CC4)c(N)c3cc2C1` here?
A: inactive: > 30 µM

Q: For `COc1cc2c(cc1OC)-c1c(OC)c(OC)c(OC)c3ccnc(c13)C2=O`, which AC50 is on record?
A: inactive: > 30 µM

Q: With `CN(C(=O)CN1CC=C(c2ccccc2)CC1)c1c(N)n(Cc2ccccc2)c(=O)[nH]c1=O` as the compound, how does the AC50 read?
A: inactive: > 30 µM

Q: Which AC50 does the source give for `CSc1nnc([C@@H](N)Cc2c[nH]c3ccccc23)o1` here?
A: inactive: > 30 µM

Q: For `O=c1[nH]c(=O)n(CCC2=CCCCC2)c(O)c1C=NCCCn1ccnc1`, which AC50 is on record?
A: inactive: > 30 µM

Q: Which AC50 does the source give for `Nc1c(C(=O)NCc2ccco2)c2nc3ccccc3nc2n1CCN1CCOCC1` here?
A: inactive: > 30 µM

Q: With `CCCCn1c(O)c(C(C)=NCCCn2ccnc2)c(=O)[nH]c1=O` as the compound, how does the AC50 read?
A: inactive: > 30 µM

Q: Which AC50 does the source give for `O=c1[nH]c(=S)n(Cc2ccc(F)cc2)c(O)c1C=NCCCn1ccnc1` here?
A: inactive: > 30 µM
